This assay addresses mycobacterial eGFP-tagged endonuclease IV. Nature of the assay: affinity purification with mass spectrometry.

No constants are given. Whether binding was seen depends on the method and setting. In cells and extracts the contact can be indirect. A yes stands for co-enrichment or nearness to the bait. Other partners may have been found.

B1: LigC of M. bovis BCG (enzyme, UniProt A0A1R3Y525 1-358)
chain: MQLPVMPPVSPMLAKSVTAIPPDASYEPKWDGFRSICFRDGDQVELGSRNERPMTRYFPELVAAIRAELPHRCVIDGEIIIATDHGLDFEALQQRIHPAESRVRMLADRTPASFIAFDLLALGDDDYTGRPFSERRAALVDAVTGSGADADLSIHVTPATTDMATAQRWFSEFEGAGLDGVIAKPPHITYQPDKRVMFKIKHLRTADCVVAGYRVHKSGSDAIGSLLLGLYQEDGQLASVGVIGAFPMAERRRLLTELQPLVTSFDDHPWNWAAHVAGQRTPRKNEFSRWNVGKDLSFVPLRPERVVEVRYDHMEGARFRHTAQFNRWRPDRDPRSCSYAQLERPLTVSLSDIVPGLR
Take B1: the binding result is listed as “binds”.

Source of the values: PMC5663958, “DNA Ligase C and Prim-PolC participate in base excision repair in mycobacteria” (Nature Communications, 2017).
